Data published in patent publication US9849186B2, “Triblock copolymer and use therefor” (priority 2012, dated 2017).
Some of these results come from one statement about several compounds together. For at least one compound, name, drawing or mass did not settle the structure.

Assay: Local retention of injectable gel, quantified by X-band electron spin resonance
Details: 50 μl s.c. into right hind paw; X-band ESR of homogenized tissue

CC1(C)CC(N)CC(C)(C)N1[O] [4-aminoTEMPO, 4-amino-TEMPO]
time to elimination from the administration site: ≤ 1 h
